{"source": "PubChem BioAssay AID1259308 (NCATS, 2017)", "screen": "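Knock-downs that increase output of a recombinant reporter protein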 (primary screen)", "system": "human HEK293 embryonic kidney cells stably expressing firefly luciferase (HEK-CMV-Luc2-Hygro)", "reagents": "single siRNA against human genes, 0.8 pmol siRNA per well", "time to read-out": "72 h", "read-out": "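Reporter luminescence and viable-cell signal on separate replicate plates, given as percent of non-targeting control and median/MAD z-scores, plus per-cell luciferase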", "reading the numbers": "total luciferase, z-score and total luciferase, % of control: higher = more reporter protein produced", "hit rule": "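An siRNA counts as active if its total luciferase robust z-score exceeds 3; genes with two or more such siRNAs out of three were retested with fresh siRNAs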", "meaning of the calls": "active = raised luciferase; inactive = no rise", "note": "Here is one part, drawn at random, of about 59,000 deposited reagents. Over the whole deposit, about 1,510 (2.6%) got an active call. 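Calls use total luciferase alone and ignore viability, so some active siRNAs may act by altering cell number.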 Entries without a mark were called inactive. Reagents against one gene are numbered here. Not all columns of the deposit are shown."}
{"Gene": "BUD23 (BUD23 rRNA methyltransferase and ribosome maturation factor)", "reagent no.": 1, "total luciferase, z-score": -2.48, "total luciferase, % of control": 32.6}
{"Gene": "BUD23 (BUD23 rRNA methyltransferase and ribosome maturation factor)", "reagent no.": 2, "total luciferase, z-score": -1.76, "total luciferase, % of control": 46.8}
{"Gene": "BUD23 (BUD23 rRNA methyltransferase and ribosome maturation factor)", "reagent no.": 3, "total luciferase, z-score": -1.62, "total luciferase, % of control": 49.7}
{"Gene": "ZNF567 (zinc finger protein 567)", "reagent no.": 1, "total luciferase, z-score": -0.203, "total luciferase, % of control": 77.8}
{"Gene": "ZNF567 (zinc finger protein 567)", "reagent no.": 2, "total luciferase, z-score": -0.502, "total luciferase, % of control": 71.9}
{"Gene": "ZNF567 (zinc finger protein 567)", "reagent no.": 3, "total luciferase, z-score": -0.126, "total luciferase, % of control": 79.4}
{"Gene": "HDAC11 (histone deacetylase 11)", "reagent no.": 1, "total luciferase, z-score": -1.63, "total luciferase, % of control": 49.4}
{"Gene": "HDAC11 (histone deacetylase 11)", "reagent no.": 2, "total luciferase, z-score": 0.446, "total luciferase, % of control": 90.7}
{"Gene": "HDAC11 (histone deacetylase 11)", "reagent no.": 3, "total luciferase, z-score": 0.0857, "total luciferase, % of control": 83.6}
{"Gene": "TSPAN7 (tetraspanin 7)", "reagent no.": 1, "total luciferase, z-score": 0.532, "total luciferase, % of control": 92.5}
{"Gene": "TSPAN7 (tetraspanin 7)", "reagent no.": 2, "total luciferase, z-score": 1.8, "total luciferase, % of control": 118}
{"Gene": "TSPAN7 (tetraspanin 7)", "reagent no.": 3, "total luciferase, z-score": 0.308, "total luciferase, % of control": 88}

Next part; the last 3 above are carried over.
{"Gene": "TSPAN7 (tetraspanin 7)", "reagent no.": 1, "total luciferase, z-score": 0.532, "total luciferase, % of control": 92.5}
{"Gene": "TSPAN7 (tetraspanin 7)", "reagent no.": 2, "total luciferase, z-score": 1.8, "total luciferase, % of control": 118}
{"Gene": "TSPAN7 (tetraspanin 7)", "reagent no.": 3, "total luciferase, z-score": 0.308, "total luciferase, % of control": 88}
{"Gene": "HAMP (hepcidin antimicrobial peptide)", "reagent no.": 1, "total luciferase, z-score": 0.824, "total luciferase, % of control": 98.3}
{"Gene": "HAMP (hepcidin antimicrobial peptide)", "reagent no.": 2, "total luciferase, z-score": 0.21, "total luciferase, % of control": 86.1}
{"Gene": "HAMP (hepcidin antimicrobial peptide)", "reagent no.": 3, "total luciferase, z-score": -0.342, "total luciferase, % of control": 75.1}
{"Gene": "B3GNT9", "reagent no.": 1, "total luciferase, z-score": -0.0036, "total luciferase, % of control": 81.8}
{"Gene": "B3GNT9", "reagent no.": 2, "total luciferase, z-score": -0.0797, "total luciferase, % of control": 80.3}
{"Gene": "B3GNT9", "reagent no.": 3, "total luciferase, z-score": 1.79, "total luciferase, % of control": 117}
{"Gene": "CPEB1 (cytoplasmic polyadenylation element binding protein 1)", "reagent no.": 1, "total luciferase, z-score": 2.17, "total luciferase, % of control": 125}
{"Gene": "CPEB1 (cytoplasmic polyadenylation element binding protein 1)", "reagent no.": 2, "total luciferase, z-score": -0.69, "total luciferase, % of control": 68.2}
{"Gene": "CPEB1 (cytoplasmic polyadenylation element binding protein 1)", "reagent no.": 3, "total luciferase, z-score": 0.333, "total luciferase, % of control": 88.5}
{"Gene": "ADGRF4 (adhesion G protein-coupled receptor F4)", "reagent no.": 1, "total luciferase, z-score": 0.114, "total luciferase, % of control": 84.2}
{"Gene": "ADGRF4 (adhesion G protein-coupled receptor F4)", "reagent no.": 2, "total luciferase, z-score": -0.334, "total luciferase, % of control": 75.2}
{"Gene": "ADGRF4 (adhesion G protein-coupled receptor F4)", "reagent no.": 3, "total luciferase, z-score": 0.0456, "total luciferase, % of control": 82.8}
{"Gene": "KRT5 (keratin 5)", "reagent no.": 1, "total luciferase, z-score": 0.382, "total luciferase, % of control": 89.5}
{"Gene": "KRT5 (keratin 5)", "reagent no.": 2, "total luciferase, z-score": 0.0523, "total luciferase, % of control": 82.9}
{"Gene": "KRT5 (keratin 5)", "reagent no.": 3, "total luciferase, z-score": 0.371, "total luciferase, % of control": 89.3}
{"Gene": "ERO1B (endoplasmic reticulum oxidoreductase 1 beta)", "reagent no.": 1, "total luciferase, z-score": 0.359, "total luciferase, % of control": 89}
{"Gene": "ERO1B (endoplasmic reticulum oxidoreductase 1 beta)", "reagent no.": 2, "total luciferase, z-score": -0.769, "total luciferase, % of control": 66.6}
{"Gene": "ERO1B (endoplasmic reticulum oxidoreductase 1 beta)", "reagent no.": 3, "total luciferase, z-score": -1.12, "total luciferase, % of control": 59.6}
{"Gene": "TOGARAM1 (TOG array regulator of axonemal microtubules 1)", "reagent no.": 1, "total luciferase, z-score": 0.326, "total luciferase, % of control": 88.4}
{"Gene": "TOGARAM1 (TOG array regulator of axonemal microtubules 1)", "reagent no.": 2, "total luciferase, z-score": 2.12, "total luciferase, % of control": 124}
{"Gene": "TOGARAM1 (TOG array regulator of axonemal microtubules 1)", "reagent no.": 3, "total luciferase, z-score": -0.42, "total luciferase, % of control": 73.5}
